Values quoted from earlier work, collected in patent US5424185A, “Human high-affinity neurotransmitter uptake system” (Baylor College of Medicine, priority 1990, dated 1995).

Key:
[1] = test system: Rat Synaptosomes (Purified); conditions: read-out: Representative IC50, Rat Synaptosomes (Purified); literature value; cited from earlier work
[2] = test system: Cultured Astrocytes (rat); conditions: read-out: Representative IC50, Cultured Astrocytes (rat); literature values; cited from earlier work
Rat Synaptosomes = conditions: literature values; read-out: Representative IC50, Rat Synaptosomes; cited from earlier work

Compound	IC50 [1]	IC50 [2]	IC50 (Rat Synaptosomes)
CNCCC(Oc1ccc(C(F)(F)F)cc1)c1ccccc1 (stereo not shown) [Fluoxetine, fluoxetine]	290 nM	23 nM	
CN1CCN2c3ccccc3Cc3ccccc3C2C1 (stereo not shown) [Mianserin, mianserin]		4900 nM	8000 nM
